Reference: publication PMC4191963, “DNA Binding Properties of the Actin-Related Protein Arp8 and Its Role in DNA Repair” (PLoS ONE, 2014)
Weaker means in comparison with the reference protein, sequence or condition of that experiment. The exact form of at least one protein or probe is not confirmed.

By UniProt entry, the sequences of proteins in these tests, tags left out.
UniProt Q9H981, whole entry: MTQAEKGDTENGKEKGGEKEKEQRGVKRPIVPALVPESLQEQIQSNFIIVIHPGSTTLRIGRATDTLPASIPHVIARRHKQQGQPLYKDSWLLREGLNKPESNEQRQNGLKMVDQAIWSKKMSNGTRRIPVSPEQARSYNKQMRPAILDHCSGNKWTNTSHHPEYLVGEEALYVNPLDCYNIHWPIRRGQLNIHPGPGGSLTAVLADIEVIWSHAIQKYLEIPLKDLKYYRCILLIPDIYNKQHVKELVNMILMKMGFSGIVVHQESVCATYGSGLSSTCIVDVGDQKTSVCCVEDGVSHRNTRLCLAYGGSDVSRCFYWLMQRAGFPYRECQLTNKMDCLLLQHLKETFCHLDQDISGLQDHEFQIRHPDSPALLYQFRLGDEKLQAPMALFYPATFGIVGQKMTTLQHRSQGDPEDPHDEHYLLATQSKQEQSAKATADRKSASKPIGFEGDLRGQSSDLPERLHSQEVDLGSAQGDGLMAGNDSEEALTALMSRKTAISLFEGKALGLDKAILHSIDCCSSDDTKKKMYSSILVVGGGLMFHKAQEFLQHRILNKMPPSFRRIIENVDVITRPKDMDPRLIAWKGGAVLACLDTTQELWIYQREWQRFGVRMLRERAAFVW

Biological target: Arp8 (Homo sapiens) (UniProt Q9H981)
Test: competition EMSA (PAGE)
Conditions: 3 µM each of ssDNA, dsDNA, 3'-overhang, 250 mM NaCl, 20 mM HEPES-NaOH pH 7.5, 160 mM NaCl (250 mM in oligonucleotide competition), 1 mM MgCl2, 1 mM DTT, 0.1 mg/ml BSA, 8% glycerol (not listed for competition), recombinant protein, residues 1-624, protein details: His6 (N-terminal) removed by PreScission

Sequence	binding result (lowest affinity)	binding result (intermediate affinity)
CCTCGATCCTACCAACCAGATGACGCGCTGCTACGTGCTACCGGAAGTCG / CGACTTCCGGTAGCACGTAGCAGCGCGTCAACTGGTTGGTAGGATCGAGG [a3/a3-cp dsDNA]	binds more weakly	
CCTCGATCCTACCAACCAGATGACGCGCTGCTACGTGCTACCGGAAGTCG / GCCTAGAGTGCAGTTCGTGGCGAGC [a3/c 3'-overhang DNA]		binds
